Assay results: the supplement of paper PMC9015667
Structures can show the parent of a compound that is named as a salt. The list shows a part of the results. Most values come without repeats; read them as rough.

Experiments:
Assay in all cases: reduction in cell viability relative to untreated/vehicle; higher = more growth inhibition
Settings in all cases: 200 nM; 72 h
[1] = system: M229P (parental melanoma line)
[2] = system: M229R (matched melanoma line resistant to BRAF inhibitors)
[3] = system: M238P (parental melanoma line)
[4] = system: M238R (matched melanoma line resistant to BRAF inhibitors)
[5] = system: M249P (parental melanoma line)
[6] = system: M249R (matched melanoma line resistant to BRAF inhibitors)
[7] = system: UACC62P (parental melanoma line)
[8] = system: UACC62R (matched melanoma line resistant to BRAF inhibitors)

Measured: reduction in cell viability

Clc1ccc2nsnc2c1NC1=NCCN1 [Tizanidine hydrochloride]
< 0%: [1] | [2] | [3] | [4] | [5] | [6] | [8]
12.1%: [7]

CC(COc1ccccc1)N(CCCl)Cc1ccccc1 (centres undefined) [Phenoxybenzamine hydrochloride]
1.91%: [2]
< 0%: [1] | [3] | [4] | [5] | [6] | [7] | [8]

C[C@H]1C[C@H]2[C@@H]3CCC4=CC(=O)C=C[C@]4(C)[C@H]3C(=O)C[C@]2(C)[C@@]1(O)C(=O)CO [Meprednisone]
< 0%: [1] | [2] | [3] | [4] | [5] | [6] | [7] | [8]

COc1ccc(-c2coc3cc(O)cc(O)c3c2=O)cc1 [Biochanin A]
< 0%: [1] | [2] | [3] | [4] | [5] | [6] | [7] | [8]

O=C(Nc1nc2cccc(-c3ccc(CN4CCS(=O)(=O)CC4)cc3)n2n1)C1CC1
< 0%: [1] | [2] | [3] | [4] | [5] | [6] | [7] | [8]

Clc1ccc(COC(Cn2ccnc2)c2ccc(Cl)cc2Cl)c(Cl)c1 (centres undefined) [Miconazole nitrate]
< 0%: [1] | [2] | [3] | [4] | [5] | [6] | [7] | [8]

CC(C)C[C@H](NC(=O)c1cc2ccccc2s1)C(=O)N1CCN(C(=O)[C@H](CO)NS(=O)(=O)c2ccc(Cl)cc2Cl)CC1
87.4%: [3]
< 0%: [1] | [2] | [4] | [5] | [6] | [7] | [8]

COc1ccc(S(=O)(=O)Nc2cc(-c3c(O)ccc4ccccc34)c(O)c3ccccc23)cc1
< 0%: [1] | [2] | [3] | [4] | [5] | [6] | [7] | [8]
